Results are given in words; binding and its absence hold for the method and conditions named. A result given as binding can be weak or reduced; the word gives no strength. For some assays here: Tags and fused reporters may be left off the sequences shown. Each block holds one binder with its values, some of them ahead of it.
Tests used:
[1] = biological target: Flag-BMAL1 (pLV7-CAG-1xFlag-Bmal1, full length) (mouse); assay: native gel or EMSA; 20 μg total cell extract with 32P-labelled E-box duplex, room temperature 20 min; supershift with 1 μg anti-Myc, anti-RELA or normal IgG on ice 30 min
[2] = biological target: BMAL1, endogenous in mouse fibroblasts (mouse (endogenous in fibroblasts)); assay: as above

- binding [1]: binds
B1: 3xFlag-CLOCK (protein, UniProt O08785 1-855)
chain: MVFTVSCSKMSSIVDRDDSSIFDGLVEEDDKDKAKRVSRNKSEKKRRDQFNVLIKELGSMLPGNARKMDKSTVLQKSIDFLRKHKETTAQSDASEIRQDWKPTFLSNEEFTQLMLEALDGFFLAIMTDGSIIYVSESVTSLLEHLPSDLVDQSIFNFIPEGEHSEVYKILSTHLLESDSLTPEYLKSKNQLEFCCHMLRGTIDPKEPSTYEYVRFIGNFKSLTSVSTSTHNGFEGTIQRTHRPSYEDRVCFVATVRLATPQFIKEMCTVEEPNEEFTSRHSLEWKFLFLDHRAPPIIGYLPFEVLGTSGYDYYHVDDLENLAKCHEHLMQYGKGKSCYYRFLTKGQQWIWLQTHYYITYHQWNSRPEFIVCTHTVVSYAEVRAERRRELGIEESLPETAADKSQDSGSDNRINTVSLKEALERFDHSPTPSASSRSSRKSSHTAVSDPSSTPTKIPTDTSTPPRQHLPAHEKMTQRRSSFSSQSINSQSVGPSLTQPAMSQAANLPIPQGMSQFQFSAQLGAMQHLKDQLEQRTRMIEANIHRQQEELRKIQEQLQMVHGQGLQMFLQQSNPGLNFGSVQLSSGNSNIQQLTPVNMQGQVVPANQVQSGHISTGQHMIQQQTLQSTSTQQSQQSVMSGHSQQTSLPSQTPSTLTAPLYNTMVISQPAAGSMVQIPSSMPQNSTQSATVTTFTQDRQIRFSQGQQLVTKLVTAPVACGAVMVPSTMLMGQVVTAYPTFATQQQQAQTLSVTQQQQQQQQQPPQQQQQQQQSSQEQQLPSVQQPAQAQLGQPPQQFLQTSRLLHGNPSTQLILSAAFPLQQSTFPPSHHQQHQPQQQQQLPRHRTDSLTDPSKVQPQ

- binding [2]: binds
B2: CLOCK, endogenous in mouse fibroblasts (protein, UniProt O08785 1-855)
chain: B1 chain
